From patent publication US10238688B2, “Combination therapies for bladder cancer” (GENEDIA BIOTECH CO. LTD., priority 2015, dated 2019)

Test system: nine cancer-associated signaling pathways
Assay: Pearson correlation of collective drug-triggered pathway activities (single drug versus EH/Ci/Mi regimen)
Settings: for Digitalized drug-triggered changes, number of pathways (1): activated; for Digitalized drug-triggered changes, number of pathways 0: null; for Digitalized drug-triggered changes, number of pathways (−1): repressed

Row | SMILES | Digitalized drug-triggered changes, number of pathways (1) (5637 cells) | Digitalized drug-triggered changes, number of pathways 0 (5637 cells) | Digitalized drug-triggered changes, number of pathways (−1) (5637 cells) | Digitalized drug-triggered changes, number of pathways (1) (Biu87 cells) | Digitalized drug-triggered changes, number of pathways 0 (Biu87 cells) | Digitalized drug-triggered changes, number of pathways (−1) (Biu87 cells) | Digitalized drug-triggered changes, number of pathways (1) (H-bc cells) | Digitalized drug-triggered changes, number of pathways 0 (H-bc cells) | Digitalized drug-triggered changes, number of pathways (−1) (H-bc cells) | Digitalized drug-triggered changes, number of pathways (1) (SV-HUC-1 cells) | Digitalized drug-triggered changes, number of pathways 0 (SV-HUC-1 cells) | Digitalized drug-triggered changes, number of pathways (−1) (SV-HUC-1 cells) | Digitalized drug-triggered changes, number of pathways (1) (UM-UC-3 cells) | Digitalized drug-triggered changes, number of pathways 0 (UM-UC-3 cells) | Digitalized drug-triggered changes, number of pathways (−1) (UM-UC-3 cells)
1 | N.N.[Cl][Pt][Cl] [Ci, (SP-4-2)-diamminedichloroplatinum(II)] | 5 | 3 | 1 | 1 | 6 | 2 | 1 | 5 | 3 | 3 | 6 | 0 | 6 | 0 | 3
2 | COc1cccc2c1C(=O)c1c(O)c3c(c(O)c1C2=O)C[C@@](O)(C(=O)CO)C[C@@H]3[C@@H]1C[C@H](N)[C@@H](O)[C@H](C)O1 [EH, (8R,10S)-10-((2S,4S,5R,6S)-4-amino-5-hydroxy-6-methyltetrahydro-2H-pyran-2-yl)-6,8,11-trihydroxy-8-(2-hydroxyacetyl)-1-methoxy-7,8,9,10-tetrahydrotetracene-5,12-dione] | 6 | 3 | 0 | 4 | 5 | 0 | 3 | 6 | 0 | 4 | 5 | 0 | 4 | 3 | 1
3 | COC12C(COC(N)=O)C3=C(C(=O)C(C)=C(N)C3=O)N1CC1NC12 (stereo not drawn) [Mi, [6-Amino-8a-methoxy-5-methyl-4,7-dioxo-1,1a,2,4,7,8,8a,8b-octahydroazireno [2′,3′:3,4]pyrrolo[1,2-a]indol-8-yl]methyl carbamate] | 8 | 1 | 0 | 4 | 5 | 0 | 1 | 3 | 5 | 3 | 6 | 0 | 2 | 5 | 2
